Experimental data from paper PMC5993806.

Protein sequences, listed by entry. Tags and fused reporters are not part of them.
UniProt Q9Y3Z3: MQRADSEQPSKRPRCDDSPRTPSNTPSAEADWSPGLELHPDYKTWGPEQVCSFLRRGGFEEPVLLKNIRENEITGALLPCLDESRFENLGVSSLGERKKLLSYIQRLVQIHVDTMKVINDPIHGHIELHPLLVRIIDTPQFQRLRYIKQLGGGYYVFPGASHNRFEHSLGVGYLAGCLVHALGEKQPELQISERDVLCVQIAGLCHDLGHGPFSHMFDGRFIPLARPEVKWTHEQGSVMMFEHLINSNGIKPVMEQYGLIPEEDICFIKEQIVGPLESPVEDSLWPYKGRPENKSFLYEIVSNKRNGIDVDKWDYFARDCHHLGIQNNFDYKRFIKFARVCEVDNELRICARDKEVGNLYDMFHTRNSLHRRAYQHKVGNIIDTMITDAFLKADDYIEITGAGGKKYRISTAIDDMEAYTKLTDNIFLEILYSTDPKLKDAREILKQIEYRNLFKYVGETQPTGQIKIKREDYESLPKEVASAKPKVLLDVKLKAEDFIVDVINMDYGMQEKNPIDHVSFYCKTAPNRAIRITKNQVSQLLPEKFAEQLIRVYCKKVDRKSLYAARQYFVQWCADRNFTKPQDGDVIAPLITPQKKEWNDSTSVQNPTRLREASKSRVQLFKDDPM
UniProt P30153: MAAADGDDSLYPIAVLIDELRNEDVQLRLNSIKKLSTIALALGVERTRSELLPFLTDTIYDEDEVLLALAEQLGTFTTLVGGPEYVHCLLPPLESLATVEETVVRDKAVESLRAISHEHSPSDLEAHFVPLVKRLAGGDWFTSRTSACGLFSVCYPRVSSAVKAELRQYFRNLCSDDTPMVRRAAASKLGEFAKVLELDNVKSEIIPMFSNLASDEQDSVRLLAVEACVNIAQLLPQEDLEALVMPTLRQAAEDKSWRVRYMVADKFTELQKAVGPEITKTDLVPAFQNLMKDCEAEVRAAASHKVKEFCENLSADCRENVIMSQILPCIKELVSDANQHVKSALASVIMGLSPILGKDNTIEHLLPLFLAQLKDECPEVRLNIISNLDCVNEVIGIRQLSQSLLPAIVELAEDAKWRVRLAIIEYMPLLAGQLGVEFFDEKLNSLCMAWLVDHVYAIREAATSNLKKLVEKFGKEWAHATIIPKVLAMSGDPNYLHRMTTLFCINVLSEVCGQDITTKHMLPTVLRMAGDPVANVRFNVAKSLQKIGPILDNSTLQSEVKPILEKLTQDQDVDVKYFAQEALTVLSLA

Tests used:
GFP-SAMHD1 (human) = GFP-SAMHD1 (human) (UniProt Q9Y3Z3); assay: affinity purification with mass spectrometry; anti-GFP trapping of lysates of GFP or GFP-SAMHD1 overexpressing HEK293T cells; four washes with NENT300 (300 mM NaCl, 0.1% NP40); on-bead trypsin digestion, nano-LC-MS/MS
CBP-SBP-SAMHD1 (human) = CBP-SBP-SAMHD1 (human) (UniProt Q9Y3Z3); assay: affinity purification with mass spectrometry; tandem-affinity purification of CBP-SBP-SAMHD1 from HEK293T cells; in-gel digestion; MS

PP2A Aα subunit (from UniProt P30153 1-589)
binding (GFP-SAMHD1 (human)): binds | binding (CBP-SBP-SAMHD1 (human)): binds

These are yes or no findings as the source states them, for the method shown. Binding seen in cells or lysates may run through a third protein. A yes stands for co-enrichment or nearness to the bait. Other partners may have been found.
